Data on two molecules can be found in US20260265334A1, “STAPLED PEPTIDES” (THE FLOREY INSTITUTE OF NEUROSCIENCE AND MENTAL HEALTH, priority 2023, published 2026).

The chains behind the UniProt entries cited, without tags or fusion partners.
UniProt Q8TDU9: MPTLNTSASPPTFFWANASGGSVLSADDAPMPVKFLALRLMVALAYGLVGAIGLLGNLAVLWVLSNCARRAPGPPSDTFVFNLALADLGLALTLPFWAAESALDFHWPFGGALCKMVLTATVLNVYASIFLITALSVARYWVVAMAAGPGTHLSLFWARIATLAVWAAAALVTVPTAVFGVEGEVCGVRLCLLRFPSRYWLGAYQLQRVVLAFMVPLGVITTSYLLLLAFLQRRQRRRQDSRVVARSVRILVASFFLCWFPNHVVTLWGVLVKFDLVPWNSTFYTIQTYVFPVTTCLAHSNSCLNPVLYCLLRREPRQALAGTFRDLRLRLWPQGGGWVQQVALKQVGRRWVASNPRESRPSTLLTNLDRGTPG

Experiment [1] deals with T1, RXFP3 (relaxin family peptide receptor 3) on CHO-K1-RXFP3 cells (UniProt Q9NSD7).
T1 sequence (looked up): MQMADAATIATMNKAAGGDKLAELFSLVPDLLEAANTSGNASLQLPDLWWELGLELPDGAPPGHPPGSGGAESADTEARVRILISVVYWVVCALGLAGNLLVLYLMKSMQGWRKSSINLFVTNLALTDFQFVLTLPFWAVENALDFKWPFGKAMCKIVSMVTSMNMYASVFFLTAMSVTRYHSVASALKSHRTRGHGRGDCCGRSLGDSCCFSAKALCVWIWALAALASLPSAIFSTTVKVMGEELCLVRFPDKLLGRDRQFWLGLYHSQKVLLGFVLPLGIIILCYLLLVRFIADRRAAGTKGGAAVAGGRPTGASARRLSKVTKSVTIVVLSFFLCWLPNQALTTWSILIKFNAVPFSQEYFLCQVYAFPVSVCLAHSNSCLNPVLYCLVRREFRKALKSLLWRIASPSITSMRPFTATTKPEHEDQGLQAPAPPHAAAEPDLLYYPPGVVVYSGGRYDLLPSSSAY
The experiment in a line: competition with Eu-H3B1-22R on CHO-K1-RXFP3 cells.

For experiment [2], the target named is LgBiT-RXFP4 (HEK-LgBiT-RXFP4 crude membrane fractions) (UniProt Q8TDU9). The experiment can be described thus: worded; the binding numbers for it are the SmBiT-R3/I5 pKi of Table 5.

Results are given in words; binding and its absence hold for the method and conditions named. Some binding calls cover weakened binding; strength is not graded here.

Take SGREFIRAVIFTSR (14 residues) [H3B10-22R13/17EA (Formula XII, truncated form of H3B1-22R)]: in experiment [1], the binding entry is recorded as “binds”.

B1: INSL5-A13: B7-24_G20/21 (two-chain G20/21 analogue) (ligand)
chain 1: CTDGASMKDLSALC
chain 2: CGLEYIRTVIYICGGSRW
notes: GlyGly at positions B20 and B21; also called Formula III
Turning to B1, in experiment [2], the binding entry was “binds”.
